Measured values taken from US20160297892A1.
Substitutions are numbered along the chain they refer to. Results are given in words; binding and its absence hold for the method and conditions named. Some entries that bind do so weakly or less than the wild type.

B1: M-hProtS-6F216A3 (mAb 0914) monoclonal antibody (antibody, V domains shown)
VH: QVQLQQPGAELVRPGASVKLSCKASGYTFTSYWINWVKQRPEQGLEWIGRIDPYDSETHYNQKFKDKAILTVDKSSSTAYMQLSSLTSEDSAVYYCARWGGSGYAMDYWGQGTSVTVSS
VL: QIVLSQSPAILSASPGEKVTMTCRASSSVSYMYWYQQKPGSSPKPWIYATSNLASGVPARFSGSGSGTSYSLTISRVEAEDAATYYCQQWSSIPPTFGGGTKLEIKR
B2: M-hProtS-6F128A2 monoclonal antibody (antibody, mouse IgG1, V domains shown)
VL: SIVMTQTPKFLLVSAGDRVTITCKASQSVSNDVAWYQQKPGQSPKLLIYYASNRYTGVPDRFTGSGYGTDFTFTISTVQAEDLAVYFCQQDYSSPYTFGGGTKLEIKR
V domain: B1 VH with V115A
B3: M-hProtS-3F2A1 monoclonal antibody (antibody, V domains shown)
VH: EVQLQESGPSLVKPSQTLSLTCSVTGDSITSGYWNWIRKFPGNKLEYMGYISFSGSTYYNPSLKSRISITRDTSKNQYYLQLNSVTTEDTATYYCAREFAYWGQGTLVTVSA
VL: DIVLTQSPATLSVTPGDSVSLSCRASQSISNNLHWYQQKSHESPRLLIKFVSQSISGIPSRFSGSGSGTDFTLSINSVETEDFGMYFCQQSNSWPWTFGGGTKLEIKR
B4: M-hProtS-2F380A1 monoclonal antibody (antibody, mouse IgG1, V domains shown)
VH: EVKLEESGGGLVQPGGSMKLSCAASGFTFSDAWMDWVRQSPEKGLEWVAEVRSKADNHATYYAESVKGRFTISRDDSKSAVYLQMNSLRPEDTGIYYCTLTTAFLFDSWGQGTTLTVSS
VL: QIALTQSPAIMSASPGEKVTMTCSVNSSVSYMHWYQQKPGSSPRLWIYDTSNLVSGVPGRFSGSGSGTSYSLTLSSMEAEDAATYYCQQYSGYLYTFGGGTKLEIKR
B5: M-hProtS-2F4A1 monoclonal antibody (antibody, V domains shown)
VH: B4 VH with V51I, D56N, A80G, S108Y
VL: B4 VL with N26S
B6: M-hProtS-6F153A2 monoclonal antibody (antibody, mouse IgG1, V domains shown)
VH: QIQLVQSGPELKKPGETVKISCKASGYTFSDYSMHWVKQTPGEGLKWMGWMNTGTGEPTYADDFKGRFAFSLETSATTAHLQINNLKNEDTATYFCARRLYYGTGLAYWGQGTLVTVSA
VL: DIVMTQSHKFMSTSVGDRVSITCKASQDVSTGVAWYQQKPGQSPKLLIFSASSRYSGVPDRFTGSGSGTDFTFTISSVQAEDLAVYYCQQHYSSPRTFGGGTKLEIKR
B7: M-hProtS-2F382A1 monoclonal antibody (antibody, mouse IgG1, V domains shown)
VH: EVKLEESGGGLVQPGGSMKLSCAASGFTFSDAWMGWVRQSPEKGLEWVAEIRGKANNHATYYSESVKGRFTISRDDSKSSVYLQMNSLRAEDTGIFYCCLITAFLFDYWGQGTTLTVSS
VL: QIVLTQSPAIMSASPGEKVTMTCSGRSSENYMYWYQQKPGSPPRLWIYDTSNLVSGVPARFSGSRSGTSYSLTISSMEAEDAATYYCQQFNGYPYTFGGGTKLEIRR
B8: M-hProtS-6F138A3 monoclonal antibody (antibody, V domains shown)
VH: QVHLKESGPGLVAPSQNLSITCTVSGFSLTGYGVSWVRQPPGKGLEWLGMIWGDGTTDYNSTLKSRLSISKDNSKSQVFLKMNSLQIDDTARYYCARDPGAMDYWGQGTSVTVSS
VL: QIVLTQSPAIMSASPGEKVTITCSATSSVTYMHWFQQKPGTSPKLWIFSTSNLASGVPPRFSGSGSGTSYSLTISRMEAEDAATYYCQQRSSYPPTFGGGTKLEIKR
B9: M-hProtS-3F38A2 monoclonal antibody (antibody, mouse IgG1, V domains shown)
VH: EVLLQQSGPELVKPGASVKIPCKASGYTFTDYNMDWVKQSHGKSLEWIGDINPNNGDTFYNQKFKGKATLTVDKSSSTAYMELRSLTSEDTAVYYCARSEIFTTAPDYGMGYWGQGTSVTVSS
VL: ENVLTQSPAIMSASPGEKVTMTCRASSSVSSSYLHWYQQRSGASPKLWIYGTSNLASGVPARFSGSGSGTSYSLTISSVEAEDAATYYCQQYSGYPRTFGGGTKLEIKR
B10: M-hProtS-3F62A5 monoclonal antibody (antibody, mouse IgG1, V domains shown)
VH: B9 VH with P21T, N52D, D57G, F59I, K63E, K65T, K74T, A97V, M110V, G111D
VL: B9 VL with Q38R, R40K, G51S, S78R, L105V

Target: T1, Gla-domain deleted recombinant cynomolgus Protein S (cynomolgus monkey (Macaca fascicularis))
T1 sequence: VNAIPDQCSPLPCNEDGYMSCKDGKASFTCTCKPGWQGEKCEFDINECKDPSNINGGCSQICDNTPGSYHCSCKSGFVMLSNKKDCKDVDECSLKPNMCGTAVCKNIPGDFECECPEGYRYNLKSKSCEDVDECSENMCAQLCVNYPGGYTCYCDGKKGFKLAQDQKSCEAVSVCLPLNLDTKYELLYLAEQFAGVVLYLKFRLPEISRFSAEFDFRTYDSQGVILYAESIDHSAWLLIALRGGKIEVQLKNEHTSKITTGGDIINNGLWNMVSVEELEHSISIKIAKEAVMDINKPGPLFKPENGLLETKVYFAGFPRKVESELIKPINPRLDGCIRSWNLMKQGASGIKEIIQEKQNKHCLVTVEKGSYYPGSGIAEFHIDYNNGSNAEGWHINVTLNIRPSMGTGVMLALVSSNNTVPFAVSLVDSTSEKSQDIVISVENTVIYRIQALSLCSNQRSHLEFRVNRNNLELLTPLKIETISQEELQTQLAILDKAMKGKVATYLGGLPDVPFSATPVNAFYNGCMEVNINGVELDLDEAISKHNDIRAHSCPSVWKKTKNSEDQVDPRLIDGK
Assay: ELISA, calcium-free TBS

binding, binds:
B1, B2, B3, B4, B5, B6, B7, B8, B9, B10

Target: EGF domain 1 and 2 of recombinant human Protein S (human) (UniProt P07225)
Assay: ELISA, calcium-free TBS

binding, binds:
B1, B2, B3, B4, B5, B7

Target: T1, Gla-domain deleted recombinant cynomolgus Protein S (cynomolgus monkey (Macaca fascicularis))
Assay: ELISA, recombinant antibody

binding, binds:
B1, B3, B5, B8

Target: EGF domain 1 and 2 of recombinant human Protein S (human) (UniProt P07225)
Assay: ELISA, recombinant antibody

binding, binds:
B1, B3, B5
